Consider 1 molecule from patent US9273364B2 (Kyoto University, priority 2010, dated 2016).

The test system of the assay is alternative splicing of a specific gene (GFP/RFP reporter). Put plainly: Compound screen with GFP/RFP alternative splicing reporter. The assay is classed as cell-based. From the text: Strategy of a method for testing whether or not a compound to be tested affects an alternative splicing of a specific gene in a mammalian multicelluar organism is shown in FIG. 14.
The reporter proteins used for the method are GFP and FRP.

Take `CCCN1CCC[C@@H]2Cc3n[nH]cc3C[C@H]21.Cl` [Quinpirole HCl (−)-]: the “last column of Table 4 (head not shown in these continuation tables; table is sorted descending by it; probably the normalised GFP/RFP reporter ratio)” value worked out at 0.8969.
